Test results as given in PubChem BioAssay AID1347076 (National Center for Advancing Translational Sciences (NCATS), 2019).
Among all 400,000 compounds or so, about 13,000 (3.2%) were called active. This list was built around the results that the source calls inconclusive (neither active nor inactive); the mix of calls is not that of the screen. Calls come from the whole dose curve; as a rule, active = well fitted cell-killing curve with a large enough effect; inconclusive = small, poorly fitted or top-dose-only effect, or effect the other way; inactive = flat fitted curve, though single readings scatter. Potencies of inconclusive entries are doubtful fits and often do not repeat.

Assay: qHTS assay for MDR1-selective chemotherapeutics: Primary screen using the drug-selected MDR subline cells KB-V1; note: nearly all actives have a fitted effect of over 60% in size
Conditions: KB-V1 MDR cells viability, CellTiter-Glo, 72 h; activity change, negative = cytotoxicity: at 46.1 µM (top of the series)
In short: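 Drug-selected KB-V1 cells, grown in DMEM lacking phenol red with 10% FBS, receive compound titrations; after three days at 37 degrees C, surviving cell ATP is quantified by CellTiter-Glo luminescence and responses normalized and curve-fitted.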
% is set by controls: 0 for no effect and ±100 for the full control effect; potency is the fitted concentration of half-maximal effect.

For `CCc1noc(C)c1C(=O)N1CCN(c2cccc(Cl)c2)CC1`, which Potency is on record?
The Potency was inconclusive: 20.6 µM [cytotoxic, single point].

With `O=c1[nH]c(-c2ccccc2)nc(-c2ccccc2)c1Cl` as the compound, how does the Potency read?
The Potency was “inactive”.

With `Cc1ccc(S(=O)(=O)NCCC(=O)NCc2ccc(Cl)cc2)cc1C` as the compound, how does the Potency read?
Its Potency is “inactive”.

With `COc1ccc(N2C(=O)CCC(C(=O)O)C2c2ccc(OC)c(OC)c2)cc1` (stereo unspecified) as the compound, how does the Potency read?
The Potency was inconclusive: 0.58 µM [rising, partial curve, poor fit].

Which Potency does the source give for `Cc1cc(O)c(C=O)c2c1C(=O)Oc1c(CO)c(O)c3c(c1O2)C(O)OC3=O` (stereo unspecified) here?
The Potency was inconclusive: 25.9 µM [rising, single point].

For `Cc1cc(NC(=O)c2ccc3sc([C@@H]4O[C@H](CO)[C@H](O)[C@H](O)[C@H]4O)nc3c2)n(C)n1`, which Potency is on record?
Its Potency is “inactive”.

With `COc1ccccc1CN(C)C(=O)c1cccc(S(=O)(=O)N2CCCC2)c1` as the compound, how does the Potency read?
Its Potency is inconclusive: 32.6 µM [cytotoxic, single point].

For `CC(C)C(=O)N1CCN(c2ccccc2NC(=O)c2ccc([N+](=O)[O-])o2)CC1`, which Potency is on record?
Its Potency is inconclusive: 16.4 µM [cytotoxic, single point].

For `COC(CNC(=O)c1ccc2c(=O)n(Cc3ccc4c(c3)OCO4)c(=S)[nH]c2c1)OC`, which Potency is on record?
The Potency was inconclusive: 14.6 µM [rising, single point].

Which Potency does the source give for `COc1ccc(/C=C/C(=O)c2ccc(OC)cc2OC)c(OC)c1` here?
Its Potency is inconclusive: 29.1 µM [cytotoxic, single point].

For `CCCS(=O)(=O)NC(=O)C1(C)CCCN(C(=O)c2cccc(C)c2C)C1` (stereo unspecified), which Potency is on record?
Its Potency is “inactive”.

With `O=C(Nc1ccccc1C(=O)NC(Cc1c[nH]c2ccccc12)C(=O)O)c1ccco1` (stereo unspecified) as the compound, how does the Potency read?
The Potency was inconclusive: 18.4 µM [rising, partial curve].

With `CCC(C)(C)n1nnnc1CN(Cc1ccc(Cl)cc1)Cc1ccco1` as the compound, how does the Potency read?
Its Potency is active: 23.1 µM.

Which Potency does the source give for `Cc1cccc(C)c1NC(=O)c1cccc2c1-c1ccccc1C2=O` here?
The Potency was “inactive”.

For `CCOC(=O)N1CCN(C(=O)COC(=O)c2ccc([N+](=O)[O-])cc2Cl)CC1`, which Potency is on record?
The Potency was inconclusive: 25.9 µM [rising, single point].

With `Cc1cccc(NC(=O)c2cccc(N3CCCS3(=O)=O)c2)c1` as the compound, how does the Potency read?
The Potency was “inactive”.

Which Potency does the source give for `O=[N+]([O-])c1ccc(O)c(-c2nc(-c3ccccc3)c(-c3cccs3)[nH]2)c1` here?
The Potency was “inactive”.

Which Potency does the source give for `CN(C)c1ccc(-c2sc(Nc3ccccc3)n[n+]2-c2ccc(F)cc2)cc1` here?
Its Potency is inconclusive: 20.6 µM [rising, single point].

For `O=C(Nc1ccc([N+](=O)[O-])cc1Cl)c1cc(Br)ccc1O`, which Potency is on record?
The Potency was active: 1.84 µM.

Which Potency does the source give for `CC[C@@H]1[C@H]2CCCC(=O)N3CC[C@@H](C[C@@H]1OC(=O)Nc1ccccc1)[C@@H]23` here?
The Potency was inconclusive: 16.4 µM [rising, single point].

With `COc1ccc(CNC(=O)CCCC(=O)n2nc(C)c3ccccc32)cc1` as the compound, how does the activity change, negative = cytotoxicity read?
Its activity change, negative = cytotoxicity is inconclusive: -4.04%.

Which Potency does the source give for `CCN1CCCc2cc(CN(CCN3CCOCC3)C(=S)Nc3cc(F)cc(F)c3)ccc21` here?
Its Potency is inconclusive: 9.2 µM [cytotoxic, partial curve, poor fit].

With `CCn1c(SCC(=O)Nc2nc3ccc(OC)cc3s2)nc2c1c(=O)n(C)c(=O)n2C` as the compound, how does the Potency read?
The Potency was active: 2.06 µM.

For `CCOC(=O)c1ccc(NC(=O)CCc2nc(-c3cccc(C)c3)no2)cc1`, which Potency is on record?
The Potency was active: 20.6 µM.

With `Cc1ccc(CNC(=O)CN2Cc3ccccc3C2=O)cc1` as the compound, how does the Potency read?
The Potency was “inactive”.

Which Potency does the source give for `COc1cccc(CC2(CO)CCCN(Cc3ccc(C)s3)C2)c1` (stereo unspecified) here?
The Potency was inconclusive: 9.2 µM [cytotoxic, partial curve].

With `O=C(c1ccc(Br)cc1)c1cc([N+](=O)[O-])ccc1N1CCOCC1` as the compound, how does the Potency read?
The Potency was active: 4.61 µM.

With `OCc1cccc(-c2csc(C(O)c3ccccc3)n2)c1` (stereo unspecified) as the compound, how does the Potency read?
The Potency was “inactive”.

For `CC1CN(C(=O)CCC(=O)NCc2ccc(F)cc2)c2ccccc2S1` (stereo unspecified), which Potency is on record?
Its Potency is “inactive”.

With `O=C(COc1ccccc1C(=O)Nc1ccccc1)Nc1cccc(F)c1` as the compound, how does the Potency read?
Its Potency is “inactive”.

Which Potency does the source give for `CCOC(=O)c1ccccc1NC(=O)N(Cc1ccc(CC)cc1)Cc1cn[nH]c1-c1ccc(OC)cc1` here?
The Potency was inconclusive: 29.1 µM [cytotoxic, single point].

Which Potency does the source give for `Cc1cc(SCC#N)n2nc(C)c(-c3ccc(Cl)cc3)c2n1` here?
Its Potency is “inactive”.

With `COc1ccc(-c2cc(C(F)(F)F)nc(SCC(N)=O)n2)cc1` as the compound, how does the Potency read?
Its Potency is inconclusive: 18.4 µM [cytotoxic, single point].

For `CCCc1cnc2c(c1SCC(=O)Nc1ccc([N+](=O)[O-])cc1)c(=O)n(C)c(=O)n2C`, which Potency is on record?
Its Potency is “inactive”.

With `COc1ccc(/C=C(/NC(=O)c2cccc([N+](=O)[O-])c2)C(=O)O)cc1` as the compound, how does the activity change, negative = cytotoxicity read?
The activity change, negative = cytotoxicity was inconclusive: 4.65%.

With `CC1(O)c2ccccc2C(=O)N1CCc1ccccc1F` (stereo unspecified) as the compound, how does the Potency read?
Its Potency is inconclusive: 25.9 µM [cytotoxic, single point].

Which Potency does the source give for `COc1cc(Br)c(CC(=O)NNC(=O)c2ccc(F)cc2)cc1OC` here?
The Potency was “inactive”.

With `N=c1n(CCN2CCCCC2)c2ccccc2n1CC(=O)c1cccc([N+](=O)[O-])c1` as the compound, how does the Potency read?
The Potency was “inactive”.

Which Potency does the source give for `COc1ccc(S(=O)(=O)N(CC(=O)Nc2ccc(S(=O)(=O)N3CCOCC3)cc2)Cc2ccc(F)cc2)cc1` here?
Its Potency is inconclusive: 6.51 µM [cytotoxic, partial curve].

For `Nc1c2c(nc3ccccc13)CCCC2=O`, which Potency is on record?
The Potency was “inactive”.

With `CCOC(=O)c1ccc(NC(=O)CN2C(=O)C(C)(C)c3ccccc32)cc1` as the compound, how does the Potency read?
The Potency was inconclusive: 8.2 µM [cytotoxic, partial curve].

With `COc1cc2c(cc1OC)CN(C(=O)/C=C/c1cccs1)CC2` as the compound, how does the Potency read?
Its Potency is inconclusive: 4.61 µM [cytotoxic, partial curve, poor fit].

Which Potency does the source give for `CCC(c1nnnn1Cc1ccco1)N(CCc1ccccc1)Cc1cc2cccc(C)c2[nH]c1=O` (stereo unspecified) here?
Its Potency is inconclusive: 7.31 µM [cytotoxic, single point].

Which Potency does the source give for `Cc1ccc(C)c(NC(=O)c2cnn(-c3ccc(F)cc3F)c2C2CCNCC2)c1` here?
Its Potency is “inactive”.

With `COc1ccccc1NC(=O)C1=C(C)NC(SCC(=O)c2ccccc2)=C(C#N)C1c1ccco1` (stereo unspecified) as the compound, how does the Potency read?
Its Potency is “inactive”.

With `O=C(NCN1C(=O)C2C3C=CC(C3)C2C1=O)Nc1cccnc1` (stereo unspecified) as the compound, how does the Potency read?
Its Potency is inconclusive: 29.1 µM [rising, partial curve, poor fit].

For `O=C(NCCNc1ccc([N+](=O)[O-])cc1)c1ccccc1Br`, which Potency is on record?
The Potency was inconclusive: 29.1 µM [cytotoxic, single point].

With `COc1ccc([N+](=O)[O-])cc1NC(=O)C(C)OC(=O)c1cccnc1` (stereo unspecified) as the compound, how does the Potency read?
The Potency was inconclusive: 14.6 µM [rising, partial curve].

For `COc1ccccc1-n1c(-c2ccc(F)cc2)coc1=O`, which Potency is on record?
Its Potency is “inactive”.

Which Potency does the source give for `CNc1cncc(-c2ccc(O)cc2C)n1` here?
The Potency was inconclusive: 29.1 µM [cytotoxic, single point].

With `Fc1ccccc1C(NCCc1ccc(Cl)cc1)c1nnc(-c2ccccc2)o1` (stereo unspecified) as the compound, how does the Potency read?
The Potency was inconclusive: 3.26 µM [cytotoxic, single point].

Which Potency does the source give for `Cc1ccc(NS(=O)(=O)c2ccc(OCC(=O)N3CCOCC3)cc2)cc1` here?
Its Potency is inconclusive: 23.1 µM [cytotoxic, partial curve, poor fit].

For `Cc1cccc(C)c1NC(=O)CCSc1nc(-c2ccc3c(c2)OCO3)cc(C(F)(F)F)n1`, which Potency is on record?
The Potency was inconclusive: 5.8 µM [cytotoxic, partial curve].

With `CCCC12CN3CC(CCC)(CN(C1)C3c1ccc(OCc3ccccc3)cc1)C2=O` (stereo unspecified) as the compound, how does the Potency read?
The Potency was “inactive”.

For `COc1cccc(Nc2nc(NCC3CCCO3)c3ccccc3n2)c1` (stereo unspecified), which Potency is on record?
The Potency was active: 2.31 µM.

Which Potency does the source give for `Cc1cccc(NC(=O)c2nc[nH]c2C(=O)N[C@@H](CC(C)C)C(=O)OCc2ccccc2)c1` here?
The Potency was inconclusive: 16.4 µM [cytotoxic, single point].

For `O=C(c1ccco1)N1CCN(S(=O)(=O)Cc2ccc(Cl)cc2)CC1`, which Potency is on record?
Its Potency is inconclusive: 18.4 µM [cytotoxic, partial curve].

For `COc1ccccc1NC(=O)CN(C)S(=O)(=O)c1cccc2cccnc12`, which Potency is on record?
Its Potency is “inactive”.

With `Cn1c(=O)c2nc(NCc3ccccc3)cnc2n(C)c1=O` as the compound, how does the Potency read?
The Potency was active: 18.4 µM.

With `O=C(c1cccc(Cl)c1Cl)N1CCN(c2ccccn2)CC1` as the compound, how does the Potency read?
The Potency was inconclusive: 23.1 µM [cytotoxic, single point].

With `COc1cc(/C=C/C(=O)O)cc(S(=O)(=O)Nc2ccccc2C(=O)NCc2ccco2)c1OC` as the compound, how does the Potency read?
The Potency was inconclusive: 29.1 µM [rising, single point].

Which Potency does the source give for `COc1ccc(C(=O)C[n+]2ccc(C)cc2)cc1` here?
Its Potency is inconclusive: 6.51 µM [rising, partial curve, poor fit].

Which Potency does the source give for `O=C(Nc1ccccc1)c1ccc(=O)n(Cc2ccc(F)c(F)c2)c1` here?
Its Potency is inconclusive: 29.1 µM [cytotoxic, single point].

For `COc1cc(OC)c2c(-c3cccc(-c4ccc(NC(C)=O)cc4)c3)cc(=O)oc2c1`, which Potency is on record?
Its Potency is “inactive”.

For `CCCCCCCCCCCC(=O)NC(C(=O)O)C(O)c1ccccc1` (stereo unspecified), which Potency is on record?
Its Potency is “inactive”.

With `Oc1cccc(/C=N/Nc2ccc(Cl)nn2)c1` as the compound, how does the Potency read?
The Potency was inconclusive: 25.9 µM [rising, single point].

With `O=C(CCCN1C(=O)/C(=C/c2ccc3c(c2)OCO3)SC1=S)Nc1ccc(C(=O)O)cc1` as the compound, how does the Potency read?
The Potency was inconclusive: 29.1 µM [rising, single point].

Which Potency does the source give for `CC(C)c1ccc(OCC(=O)N2CCN(C(=O)c3ccco3)CC2)cc1` here?
Its Potency is inconclusive: 29.1 µM [cytotoxic, single point].

With `CCC(C)NC(=O)c1ccc(N2CC3CC(C2)c2cccc(=O)n2C3)c(NC(=O)c2c(F)cccc2F)c1` (stereo unspecified) as the compound, how does the Potency read?
Its Potency is “inactive”.

For `CSC[C@H]1CN(CCc2ccccc2)C(=O)[C@@H]1CC(=O)Nc1ccc(Br)cc1`, which Potency is on record?
Its Potency is inconclusive: 13 µM [cytotoxic, partial curve].

For `CCCCCc1nnc(NC(=O)CS(=O)(=O)Cc2ccccc2)s1`, which Potency is on record?
The Potency was inconclusive: 16.4 µM [cytotoxic, single point].
